In all, about 320,000 compounds went through this assay and about 2,100 (0.66%) were called active. The inconclusive results got no clear call from the source; some entries with a clear call stand among them for comparison. Calls come from the whole dose curve; as a rule, active = well fitted inhibition curve with a large enough effect in the signal ratio, with a control signal flat (not every such curve was filed as active); inconclusive = small, poorly fitted or top-dose-only effect, or effect the other way, or a change in a side signal; inactive = flat fitted curve, though single readings scatter; the % refers to the signal ratio. Where the call is inconclusive, the potency comes from a doubtful curve fit.
Test: qHTS Assay for Lipid Storage Modulators in Drosophila S3 Cells
Conditions: BODIPY lipid droplet fluorescence, 18-24 h, cells fed with added oleic acid; lipid storage change, negative = inhibition: at 46.1 µM (top of the series) unless noted
Procedure, shortened: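 Drosophila S3 cells loaded with oleic acid (400 uM, as added) and compounds at several concentrations; lipid droplets imaged by 488-nm laser-scanning cytometry, 500–530 nm intensity and object ratio to cell channel. Percent activity normalized to 20 uM Triacsin C.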
% is set by controls: 0 for no effect and ±100 for the full control effect; potency is the fitted concentration of half-maximal effect.

SMILES	Potency	lipid storage change, negative = inhibition
C=CCn1c(SCC(=O)Nc2ccc3c(c2)CCC3)nc2ccccc2c1=O	inconclusive: 20.6 µM [falling, single point]	
CC(=O)Nc1ccc2c(c1)ncn2-c1ccc(C)cc1	inconclusive: 6.51 µM [cytotoxic, single point]	
Cc1ccc(S(=O)(=O)N2CCOCC2)cc1C(=O)Nc1ccccc1F		inconclusive: 22.2%
O=C(Oc1ccc([N+](=O)[O-])cc1)c1ccc2ccccc2n1		inconclusive: 43.3%
Cc1ccc(CCN2C(=O)CCC2(C)C(=O)NCc2cccnc2)cc1 (configuration not stated)	inconclusive: 0.116 µM [falling, full curve, poor fit]	
CCOC(=O)N1CCC(N2C(=O)c3ccccc3C2Nc2cc(C(=O)OC)cc(C(=O)OC)c2)CC1 (configuration not stated)		inconclusive: -37.9%
Cc1nc2scc(C)n2c(=O)c1S(=O)(=O)N1CCN(c2ccc([N+](=O)[O-])cc2)CC1		inconclusive: 36.7%
CCOCC(=O)Nc1ccccc1C(=O)O		inconclusive: -29.4%
CC(=O)C1=C(O)C(=O)N(c2nccs2)C1c1ccccc1 (configuration not stated)	inconclusive: 6.51 µM [falling, single point]	
CC(=O)c1ccc(OC(=O)CN2C(=O)c3ccccc3C2=O)cc1	inconclusive: 1.84 µM [activator, partial curve]	
c1ccc(OCCOc2ccccc2-c2nnco2)cc1	inconclusive: 23.1 µM [activator, partial curve]	
CCC1=Nc2cc(C(=O)NCc3ccco3)ccc2Sc2ccc(Cl)cc21		inconclusive: 3.18%
COc1cc(CC(=O)Nc2ccc(Cl)c(C(F)(F)F)c2)cc(OC)c1OC		inconclusive: 25.2%
CCNC(=O)CC1C(=O)N(c2ccc(C)cc2)C(=O)N1CCC(C)C (configuration not stated)		inconclusive: -30.6%
CC(C)(C)N(NC(=O)c1ccccc1)C(=O)c1ccc(C(=O)N(NC(=O)c2ccccc2)C(C)(C)C)cc1	inconclusive: 0.206 µM [falling, partial curve, poor fit]	
Cc1cccc(NC(=O)c2ccc([N+](=O)[O-])o2)c1C		inactive
COc1ccc(CNc2ccc3c(c2)nc(C)n3C)cc1OC	inconclusive: 2.06 µM [falling, partial curve]	
O=C(CCCN1C(=O)/C(=C/c2cccs2)SC1=S)Nc1ccc(O)c(C(=O)O)c1		inconclusive: 24.7%
COc1ccc(CCN(C)C(=O)CSc2nccn2C)cc1OC	inconclusive: 0.0065 µM [activator, full curve, poor fit]	
COC(=O)[C@H](CCSC)NC(=O)Nc1ccc(C(C)=O)cc1		inactive
Cc1ccccc1C(=O)N1CCC(C(=O)NC2CCCCCC2)CC1		inconclusive: 1.92%
COc1ccc(CC(=O)N2CCN=C2SCc2cccc([N+](=O)[O-])c2)cc1		inconclusive: 39.2%
COc1ccc(CC(NC(C)=O)C(=O)NC2CCN(C(=O)C3CC3)CC2)cc1OC (configuration not stated)	inconclusive: 0.164 µM [falling, full curve, poor fit]	
COc1ccc(C(=O)N/C(=C\c2ccco2)C(=O)NCc2cccnc2)cc1		inconclusive: -31.3%
Cc1ccc(S(=O)(=O)N2CCC(C(=O)NCC3CCCO3)CC2)cc1 (configuration not stated)		inconclusive: -10.2%
FC(F)Oc1ccc(NC(=S)NC23CC4CC(CC(C4)C2)C3)cc1		inconclusive: -50.2%

SMILES	Potency	lipid storage change, negative = inhibition
CCOc1ccc(/C(CC)=N/NC(=O)C2(C)CC2(Br)Br)cc1 (configuration not stated)		inconclusive: 14.8%
Cc1cc(C)cc(NC(=O)Cn2nnc(C(=O)NCc3cccs3)c2N)c1		inconclusive: 59.1%
Cc1cc(C2=NNC(=NCc3ccccc3)SC2)c(C)n1-c1c(C)n(C)n(-c2ccccc2)c1=O		inconclusive: 21.3%
CCOC(=O)/C(=C/C=C1\Sc2cc(OCC)c(OCC)cc2N1CC)C(C)=O		inconclusive: -92.1%
O=C(NNC(=S)NCc1ccco1)c1ccccc1Br		inconclusive: -21.9%
Cc1noc(C)c1COc1cccc(C(=O)NCCc2c[nH]c3ccccc23)c1		inconclusive: -34.9%
O=C(Nc1ccc(F)c(Cl)c1)c1cc(-c2ccco2)on1		inconclusive: 99.2%
COCC(=O)OCC(=O)N1N=C(c2ccc(Cl)cc2)CC1c1ccco1 (configuration not stated)	inconclusive: 0.0291 µM [falling, full curve]	
Cc1ccccc1N=C1c2ccccc2C(=O)C1[N+](=O)[O-] (configuration not stated)		inconclusive: 17.5%
C=CCNC(=O)C(=O)NCC1CCCN1S(=O)(=O)c1cccs1 (configuration not stated)		inconclusive
C/C(=N\NS(=O)(=O)c1ccc(C)c([N+](=O)[O-])c1)c1cc2ccccc2o1		inconclusive: -117%
O=C(NCC1CCCO1)c1cc2ccccc2nc1Cl (configuration not stated)		inconclusive: -18.5%
O=C1CC[C@H](N2C(=O)c3ccccc3C2=O)C(=O)N1		inconclusive: -26.3%
Cc1oc2cc3oc(=O)c(CCC(=O)NCCCn4ccnc4)c(C)c3cc2c1C		inconclusive: -33%
O=c1[nH]c(CSc2ncnc3sccc23)nc2ccccc12		inconclusive: 16%
CC(C)CNc1nc(NC(C)(C)C)nc(Oc2ccc(=O)[nH]n2)n1		inconclusive: 16.6%
CN(Cc1cccc(-n2cccn2)c1)Cc1cn(C)nc1-c1ccccc1F		inconclusive: 23%
Cc1ccc(C(=O)OCC(=O)NNC(=O)c2ccc([N+](=O)[O-])cc2)o1		inconclusive: 21.6%
Cc1cc2cccc(C)c2nc1SCC(=O)NC1CCCCC1	inconclusive: 18.4 µM [falling, single point]	
Cc1ccc(C(=O)NC2CCCC(C)C2C)cc1S(=O)(=O)N1CCCCC1 (configuration not stated)		inconclusive: 6.33%
CCCC[C@@H]1CNC(=S)N1CCc1cccc2ccccc12		inconclusive: 11.6%
COc1ccc(C2CC(=O)C3=C(C2)Nc2ncnn2C3c2ccccc2C)cc1 (configuration not stated)		inconclusive: 13.7%
CC(=O)CC(=O)Nc1ccn(-c2ccccc2)n1		inconclusive: -15.2%
CCOC(=O)C1CCN(C(=O)c2ccc(OCC(=O)Nc3ccc(OCC)cc3)c(OC)c2)CC1		inconclusive: 11.9%
CCCc1c(C(=O)N/N=C/c2ccccc2OCc2ccc(F)cc2)nnn1-c1nonc1N	inconclusive: 29.1 µM [activator, single point]	
CC(C)(C)c1[nH]nc2c1C(c1ccsc1)C(C#N)=C(N)O2 (configuration not stated)		inconclusive: -22.8%

Sorted by formula weight (smallest number first): some entries from above
SMILES	Potency	lipid storage change, negative = inhibition
CC(C)CNc1nc(NC(C)(C)C)nc(Oc2ccc(=O)[nH]n2)n1		inconclusive: 16.6%
C/C(=N\NS(=O)(=O)c1ccc(C)c([N+](=O)[O-])c1)c1cc2ccccc2o1		inconclusive: -117%
Cc1oc2cc3oc(=O)c(CCC(=O)NCCCn4ccnc4)c(C)c3cc2c1C		inconclusive: -33%

More compounds

SMILES	Potency	lipid storage change, negative = inhibition
O=S(=O)(Cc1ccccc1Cl)c1ncn[nH]1		inconclusive: -7.89%
Cc1ccc(NS(=O)(=O)c2ccc(C(=O)NCCCN3CCCC3=O)cc2)cc1C		inconclusive
O=C(NCCN1CCN(C(=O)c2ccc(F)cc2)CC1)c1ccc(F)cc1	inconclusive: 29.1 µM [activator, single point]	
Cc1cc(C(=O)N2CCN(Cc3ccccc3)CC2)ccc1[N+](=O)[O-]	inconclusive: 6.51 µM [falling, single point]	
COc1ccc(C(=O)NC(=S)NNC(=O)c2ccc(O)cc2)cc1[N+](=O)[O-]		inconclusive: 102%
CCCCN(C)C(=O)Cn1nc(-c2ccc(Cl)cc2)ccc1=O		inconclusive: 65.6%
CCC(=O)c1c(CC)c2n3c1CC[C@H]3CCC2		inconclusive: 15%
Cc1ccc(C)c(S(=O)(=O)Nc2ccccc2C(=O)Nc2ccc(S(=O)(=O)Nc3ncccn3)cc2)c1	inconclusive: 0.651 µM [activator, full curve, poor fit]	
Cc1ccc2c(c1)S/C(=C\c1cccc[n+]1C)N2CCO		inactive
Cc1nc2scc(-c3ccc(Cl)cc3)c2c(=O)n1N		inconclusive: 24.6%
Cc1ccsc1C(=O)NNC(=O)c1csc(N2CCOCC2)n1		inconclusive
CC1(C)OC(=O)N(c2ccccc2)C12C=Cc1cc(Br)ccc1O2 (configuration not stated)		inconclusive: 59.7%
CCN(CC(=O)Nc1ccc2c(c1)OCCO2)C(=O)CCc1ccccc1Cl	inconclusive: 0.461 µM [activator, full curve]	
O=C(COC(=O)c1ccccc1Br)NC1CCCC1		inconclusive: -33.1%
CC(=O)Nc1ccc(NC(=O)COc2ccccc2C(=O)Nc2cccc(Cl)c2Cl)cc1	inconclusive: 16.4 µM [activator, single point]	
S=C(NCCc1ccccc1)N1CCOCC1	inconclusive: 0.58 µM [falling, single point]	
COc1cc(NS(=O)(=O)c2ccc(C)cc2)c2ncccc2c1		inconclusive: -26%
Cc1ccc(/C=N/NC(=O)c2ccc(OC3CCCC3)cc2)o1	inconclusive: 29.1 µM [falling, partial curve, poor fit]	
O=C(Nc1ccc(Oc2cccnc2)cc1)C1CCN(Cc2cc(Cl)ccc2O)CC1	inconclusive: 29.1 µM [cytotoxic, single point]	
Nc1nc(Nc2ccccc2Cl)cc(=O)[nH]1		inconclusive: 9.81%
CCc1ccccc1NC(=O)N1CCCC(CCC(=O)N(C)CCc2ccccn2)C1 (configuration not stated)		inconclusive: 13.1%
COc1cc(Cl)c(S(=O)(=O)NCCCN2CCOCC2)cc1Cl	inconclusive: 2.91 µM [falling, partial curve, poor fit]	
COc1ccccc1N1CCN(C2CCN(C(=O)c3cccc(F)c3)CC2)CC1	inconclusive: 23.1 µM [rising, single point]	
COc1cc(C(=O)N/N=c2/sc3ccccc3n2C)cc(OC)c1OC		inconclusive: 17.2%
O=c1cc(-c2ccccc2Cl)oc2c(Br)ccc(O)c12	inconclusive: 8.2 µM [activator, partial curve, poor fit]	

Three entries picked at random from the list so far:
SMILES	Potency	lipid storage change, negative = inhibition
CCCC[C@@H]1CNC(=S)N1CCc1cccc2ccccc12		inconclusive: 11.6%
COc1cc(C(=O)N/N=c2/sc3ccccc3n2C)cc(OC)c1OC		inconclusive: 17.2%
COC(=O)[C@H](CCSC)NC(=O)Nc1ccc(C(C)=O)cc1		inactive

Reference: PubChem BioAssay AID2685 (National Center for Advancing Translational Sciences (NCATS), 2010)
